Experimental data: PubChem BioAssay AID1259405 (NCATS, 2018)

Purpose: 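Knock-downs that lift recombinant protein yield in hamster ovary cells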 (primary screen)
Cells: Chinese hamster CHO-K1 ovary cells with stable secreted eGFP expression
Reagents: single siRNA against mouse genes, 0.8 pmol siRNA per well (2 µl of 400 nM stock)
Duration: 3 days
Read-out: 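Percent of the per-plate non-targeting control median for intracellular GFP per well by laser scanning cytometry and for cell viability by ATP luminescence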
Reading the numbers: GFP, % of control: higher = more GFP per well, higher productivity; viability (ATP), % of control: higher = more viable cells (more ATP)
Hit rule: 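a knock-down is called active if GFP reaches 120% or more of non-targeting control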
Shown is one part, drawn at random, of about 50,000 reagents. About 4,000 of all reagents (8%) were called active. 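Mouse siRNA library applied to hamster cells; one well for each siRNA.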 The numbers tell different reagents against one gene apart. Reagent sequences are not shown.

Gene | reagent | GFP, % of control | viability (ATP), % of control | outcome
Cdkn2d | 1 | 89.1 | 95 | inactive
Cdkn2d | 2 | 99.1 | 90.5 | inactive
Adat1 | 1 | 68.1 | 56.8 | inactive
Adat1 | 2 | 63 | 59.5 | inactive
Adat1 | 3 | 191 | 188 | active
Aar2 | 1 | 106 | 122 | inactive
Aar2 | 2 | 108 | 43.2 | inactive
Aar2 | 3 | 112 | 69.7 | inactive
Apeh | 1 | 76.9 | 76.2 | inactive
Apeh | 2 | 39.3 | 50.6 | inactive
Apeh | 3 | 75.5 | 53.8 | inactive
Rnf130 | 1 | 72.8 | 61.6 | inactive
Rnf130 | 2 | 102 | 95.1 | inactive
Rnf130 | 3 | 0.0329 | 124 | inactive
Zfp696 | 1 | 56.7 | 56.9 | inactive
Zfp696 | 2 | 75.5 | 82.5 | inactive
Zfp696 | 3 | 83.8 | 100 | inactive
Tmem62 | 1 | 43.7 | 41.1 | inactive
Tmem62 | 2 | 73.5 | 88.6 | inactive
Tmem62 | 3 | 38.7 | 29.8 | inactive
Ube2t | 1 | 85.2 | 73.1 | inactive
Ube2t | 2 | 106 | 68.5 | inactive
Ube2t | 3 | 108 | 119 | inactive
6330444E15Rik | 1 | 36.1 | 23.5 | inactive
6330444E15Rik | 2 | 61.3 | 80.7 | inactive
6330444E15Rik | 3 | 56.8 | 59.7 | inactive
Olfm5 | 1 | 87.6 | 94.6 | inactive
Olfm5 | 2 | 39 | 70.7 | inactive
Olfm5 | 3 | 62.1 | 70.8 | inactive
Cmtr1 | 1 | 91.5 | 82.2 | inactive
Cmtr1 | 2 | 79.3 | 86.6 | inactive
Cmtr1 | 3 | 81.9 | 42.5 | inactive
Dpp8 | 1 | 90.1 | 66.7 | inactive
Dpp8 | 2 | 55.5 | 43.2 | inactive
Dpp8 | 3 | 82.2 | 55.3 | inactive
B2m | 1 | 80.3 | 75.6 | inactive
B2m | 2 | 87.1 | 74.9 | inactive
B2m | 3 | 60.2 | 53.7 | inactive
Ninl | 1 | 61.4 | 98.4 | inactive
Ninl | 2 | 85.3 | 69 | inactive
Cnksr2 | 1 | 117 | 82.2 | inactive
Cnksr2 | 2 | 82.2 | 79 | inactive
Cnksr2 | 3 | 77.3 | 100 | inactive
Rab1a | 1 | 125 | 127 | active
Rab1a | 2 | 107 | 105 | inactive
Rab1a | 3 | 71.2 | 85.9 | inactive
Atp8a1 | 1 | 127 | 82.9 | active
Atp8a1 | 2 | 80.4 | 65.4 | inactive
Atp8a1 | 3 | 107 | 105 | inactive
Or12e10 | 1 | 83.5 | 75.7 | inactive
Or12e10 | 2 | 55.4 | 59.4 | inactive
Or12e10 | 3 | 77.7 | 33.7 | inactive
Abhd15 | 1 | 83.7 | 76.6 | inactive
Abhd15 | 2 | 83.7 | 69.2 | inactive
Abhd15 | 3 | 90 | 69.7 | inactive
Cbfa2t3 | 1 | 69.5 | 75.9 | inactive
Cbfa2t3 | 2 | 68.4 | 70 | inactive

7 consecutive entries already listed, for reference:
Gene | reagent | GFP, % of control | viability (ATP), % of control | outcome
Aar2 | 3 | 112 | 69.7 | inactive
Apeh | 1 | 76.9 | 76.2 | inactive
Apeh | 2 | 39.3 | 50.6 | inactive
Apeh | 3 | 75.5 | 53.8 | inactive
Rnf130 | 1 | 72.8 | 61.6 | inactive
Rnf130 | 2 | 102 | 95.1 | inactive
Rnf130 | 3 | 0.0329 | 124 | inactive
